# The inconclusive results got no clear call from the source; some entries with a clear call stand among them for comparison. Potencies of inconclusive entries are doubtful fits and often do not repeat. Active and inactive are the calls of the source. Calls follow the shape of the dose curve; as a rule, active = well fitted curve in the direction sought with a large enough effect; inconclusive = small, poorly fitted or top-dose-only effect, or another doubt; inactive = no such curve, though single readings can be large or run the other way.
# Tested on: NanoLuc luciferase (engineered Oplophorus gracilirostris luciferase)
# Test: Confirmatory Nanoluciferase (NLuc) qHTS assay for identification of artifact compounds. As to activity change, negative = inhibition: % of control where 0% means no effect.
# Details: secreted NLuc in S16 cell medium, luminescence, 5 min; series mostly up to 39 µM; activity change, negative = inhibition: at the top concentration
# Method in brief: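 Compounds were preincubated 15 min at room temperature with diluted secreted NanoLuc from S16 cell medium, then read by luminescence 5 min after Nano-Glo substrate. Percent inhibition versus DMSO and no-enzyme controls fitted by 4-parameter Hill curve.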
# Potency is read from the fitted curve at half-maximal effect.
SMILES,Potency,"activity change, negative = inhibition"
COc1ccc(C2N(Cc3ccccc3)C(=O)c3ccccc3N2C)cc1COc1ccc(NC(C)=O)cc1 (stereo unspecified),"inconclusive: 15.4 µM [inhibitor, partial curve]",
COc1ccc(CC(=O)Nc2nc3c(s2)CCCC3)cc1,,inactive: -7.35%
O=C(Nc1ccc(Br)cc1)c1cccc(C(=O)Nc2ccc(Br)cc2)c1,,inactive: -2.91%
Cc1ccc(C(=O)Nc2nc(-c3ccccc3)ns2)cc1,,inactive: -7.23%
Fc1ccc(-c2cc(-c3nc(-c4ccc(Cl)cc4)no3)[nH]n2)cc1,,inactive: -0.152%
Cc1cccc(-c2noc(-c3ccc(NCc4ccco4)c([N+](=O)[O-])c3)n2)c1,,inactive: -14.5%
CN(C)c1ccc(CNC(=O)c2ccc3c(c2)N(C)C(=O)C2CCCCN32)cc1 (stereo unspecified),,inactive: -7.38%
Cc1oc(-c2cccc(Br)c2)nc1CSc1nc2ncccc2[nH]1,active: 8.64 µM,
Cc1ccc2[nH]c(CSc3nnc(NC(=O)c4ccccc4F)s3)cc(=O)c2c1,"inconclusive: 19.4 µM [inhibitor, partial curve, poor fit]",
CCNc1cccc(S(=O)(=O)N2CCCN(S(=O)(=O)c3ccc4c(c3)OCCO4)CC2)c1,"inconclusive: 2.44 µM [inhibitor, partial curve, poor fit]",
COc1cc(C2Nc3ccccc3C(=O)N2Cc2ccccc2)ccc1OCc1ccc(NC(C)=O)cc1 (stereo unspecified),"inconclusive: 30.7 µM [inhibitor, partial curve, poor fit]",

# Reference: PubChem BioAssay AID1845224 (National Center for Advancing Translational Sciences (NCATS), 2023)
